The record followed here is doi:10.1101/2021.12.02.470991.

Chains of the proteins cited; added tags and fusions are not shown.
UniProt Q92922: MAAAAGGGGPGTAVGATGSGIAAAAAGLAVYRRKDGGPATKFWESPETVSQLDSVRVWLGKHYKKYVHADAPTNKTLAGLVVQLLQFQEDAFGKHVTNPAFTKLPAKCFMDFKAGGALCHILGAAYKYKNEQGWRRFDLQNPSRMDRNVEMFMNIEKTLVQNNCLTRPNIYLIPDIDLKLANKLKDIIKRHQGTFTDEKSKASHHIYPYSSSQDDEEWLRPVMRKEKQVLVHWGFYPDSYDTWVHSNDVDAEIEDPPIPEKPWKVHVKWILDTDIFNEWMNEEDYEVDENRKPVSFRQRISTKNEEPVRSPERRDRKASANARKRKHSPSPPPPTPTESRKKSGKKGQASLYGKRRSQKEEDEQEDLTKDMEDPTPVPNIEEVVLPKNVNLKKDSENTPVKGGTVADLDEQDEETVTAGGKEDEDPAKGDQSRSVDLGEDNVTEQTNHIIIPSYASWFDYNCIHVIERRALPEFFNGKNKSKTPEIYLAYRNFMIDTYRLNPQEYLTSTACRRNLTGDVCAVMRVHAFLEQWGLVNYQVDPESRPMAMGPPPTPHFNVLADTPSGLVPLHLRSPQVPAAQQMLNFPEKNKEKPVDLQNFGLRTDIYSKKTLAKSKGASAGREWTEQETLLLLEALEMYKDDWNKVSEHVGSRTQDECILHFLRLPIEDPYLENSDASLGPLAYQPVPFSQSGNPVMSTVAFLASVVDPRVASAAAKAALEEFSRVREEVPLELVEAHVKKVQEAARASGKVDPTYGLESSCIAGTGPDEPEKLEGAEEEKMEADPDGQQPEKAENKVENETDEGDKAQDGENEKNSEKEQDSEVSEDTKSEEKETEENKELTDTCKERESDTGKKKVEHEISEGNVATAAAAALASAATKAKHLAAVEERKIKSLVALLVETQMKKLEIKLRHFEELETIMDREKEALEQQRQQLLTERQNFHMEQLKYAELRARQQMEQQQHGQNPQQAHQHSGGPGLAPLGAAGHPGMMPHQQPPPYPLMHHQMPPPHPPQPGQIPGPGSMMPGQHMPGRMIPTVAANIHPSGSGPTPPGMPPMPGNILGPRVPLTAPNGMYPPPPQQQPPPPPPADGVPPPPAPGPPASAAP

These are yes or no findings as the source states them, for the method shown. Binding seen in cells or lysates may run through a third protein. Some binding calls cover weakened binding; strength is not graded here. For some assays here: Where a sequence is shown, tags or fusion partners need not be part of it.

For assay [1], the target named is HER2 (Epidermal Growth Factor Receptor-family member) (human (endogenous in human cells)) (UniProt P04626). Kind of assay: co-IP.
Assay [2] deals with T1, SWI3B fused to YFN (Arabidopsis thaliana) (UniProt Q84JG2).
T1 sequence: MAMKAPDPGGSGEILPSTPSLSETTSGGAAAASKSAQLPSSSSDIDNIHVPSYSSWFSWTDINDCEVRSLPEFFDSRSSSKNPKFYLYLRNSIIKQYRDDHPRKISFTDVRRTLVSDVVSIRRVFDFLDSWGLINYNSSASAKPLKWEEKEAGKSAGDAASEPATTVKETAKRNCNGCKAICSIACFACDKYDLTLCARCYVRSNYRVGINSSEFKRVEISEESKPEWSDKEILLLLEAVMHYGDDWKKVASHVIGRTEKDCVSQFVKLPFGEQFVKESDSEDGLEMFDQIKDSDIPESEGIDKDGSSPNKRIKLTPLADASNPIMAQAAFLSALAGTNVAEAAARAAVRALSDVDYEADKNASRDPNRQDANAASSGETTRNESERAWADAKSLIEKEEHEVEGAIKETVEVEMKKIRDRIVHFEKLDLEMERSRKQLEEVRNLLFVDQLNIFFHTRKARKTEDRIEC
Kind of assay: split reporter.

As to “BAF155, SWI3-type subunit of human SWI/SNF CRCs (from UniProt Q92922 1-1105)”, the binding result in assay [1] is recorded as “binds”.

B1: RGL1 DELLA protein fused to YFC (protein, UniProt Q9C8Y3 1-511)
chain: MKREHNHRESSAGEGGSSSMTTVIKEEAAGVDELLVVLGYKVRSSDMADVAHKLEQLEMVLGDGISNLSDETVHYNPSDLSGWVESMLSDLDPTRIQEKPDSEYDLRAIPGSAVYPRDEHVTRRSKRTRIESELSSTRSVVVLDSQETGVRLVHALLACAEAVQQNNLKLADALVKHVGLLASSQAGAMRKVATYFAEGLARRIYRIYPRDDVALSSFSDTLQIHFYESCPYLKFAHFTANQAILEVFATAEKVHVIDLGLNHGLQWPALIQALALRPNGPPDFRLTGIGYSLTDIQEVGWKLGQLASTIGVNFEFKSIALNNLSDLKPEMLDIRPGLESVAVNSVFELHRLLAHPGSIDKFLSTIKSIRPDIMTVVEQEANHNGTVFLDRFTESLHYYSSLFDSLEGPPSQDRVMSELFLGRQILNLVACEGEDRVERHETLNQWRNRFGLGGFKPVSIGSNAYKQASMLLALYAGADGYNVEENEGCLLLGWQTRPLIATSAWRINRVE
B1: the binding entry in assay [2] is given as “binds”.
